Test results: the supplement of paper PMC12823440, “Inhibitors supercharge kinase turnover through native proteolytic circuits” (Nature, 2025)
This is one part of the list. The calls rarely recur for the same compound in another form.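 Kinases, fused to nanoluciferase, were expressed in K562 cells; luminescence was measured every 4 h from 2 to 18 h as percent of control (DMSO = 100%, positive control = 0%). A time point is decreased if signal falls significantly (2 sigma). Hits were called by the authors by a rule that is not shown; the count of time points alone does not decide it.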

The chains behind the UniProt entries cited, without tags or fusion partners. Where a name states a change or a piece, a line headed by the entry shows the natural chain unless it says otherwise.
UniProt Q6PHR2: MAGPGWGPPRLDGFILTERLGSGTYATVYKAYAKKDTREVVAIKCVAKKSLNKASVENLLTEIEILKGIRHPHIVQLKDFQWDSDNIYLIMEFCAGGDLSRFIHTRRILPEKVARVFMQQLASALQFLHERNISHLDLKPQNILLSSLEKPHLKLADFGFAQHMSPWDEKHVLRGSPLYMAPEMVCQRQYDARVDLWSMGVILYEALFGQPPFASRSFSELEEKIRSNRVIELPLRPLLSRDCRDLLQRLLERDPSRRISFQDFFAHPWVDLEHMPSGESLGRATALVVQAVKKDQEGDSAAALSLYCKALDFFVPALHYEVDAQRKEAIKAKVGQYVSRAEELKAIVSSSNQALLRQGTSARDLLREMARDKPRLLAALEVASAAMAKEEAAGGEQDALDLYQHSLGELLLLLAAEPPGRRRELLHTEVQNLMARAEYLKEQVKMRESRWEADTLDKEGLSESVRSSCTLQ

molecular target: ULK3 (UniProt Q6PHR2); assay: kinase-Nluc reporter destabilization hit call (1 = scored as downregulated) (binary); higher = compound decreases kinase abundance; conditions: K562; 2-18 h

kinase-Nluc reporter destabilization hit call, inactive:
NCC1CCC(CNc2nc(NCc3ccccc3OC(F)(F)F)ncc2[N+](=O)[O-])CC1 (configuration not stated) [PKC-theta inhibitor] (10 µM) 0
N[C@@H]1CCCN(c2c(/C=C3\SC(=O)NC3=O)cccc2-c2ccccc2)C1 (10 µM) 0
CCn1c(-c2nonc2N)nc2c(C#CC(C)(C)O)ncc(OC[C@H]3CCCNC3)c21 (10 µM) 0
CNC(=O)c1cc2c(Oc3ccc(NC(=O)C4(C(=O)Nc5ccc(F)cc5)CC4)cc3)ccnc2cc1OC (2.5 µM) 0
C=CC(=O)N1CC[C@@H](Oc2nc(Nc3ccc(N4CCC(N5CCN(C)CC5)CC4)cc3)c(C(N)=O)nc2CC)C1 [Naquotinib (mesylate)] (2.5 µM) 0
C=CC(=O)Nc1cc(Nc2nccc(-c3cn(C)c4ccccc34)n2)c(OC)cc1OCCN(C)C [Rezivertinib] (2.5 µM) 0
Oc1c(F)cc(-c2cnccc2-c2ccc(N3CCOCC3)cc2)cc1F (10 µM) 0
Brc1ccc(CSc2nc3ccccc3o2)cc1 [BMP signaling agonist sb4] (10 µM) 0
O=C1OC(/C=C/c2ccccc2)=NC/1=C\c1cccnc1 (10 µM) 0
O=C(NCCN1CCOCC1)Nc1nc2ccc(Sc3nnc4ccc(-c5ccc(F)cc5)nn34)cc2s1 (10 µM) 0
Cn1c(CNc2cccc(C(=O)NCc3ccccc3C(F)(F)F)c2)nnc1-c1ccncc1 (10 µM) 0
COc1cc2cc(Oc3ccc4ccc(=O)oc4c3)c(=O)oc2cc1O [Daphnoretin] (10 µM) 0

Looked up by structure from above, 2 records:
kinase-Nluc reporter destabilization hit call, inactive:
N[C@@H]1CCCN(c2c(/C=C3\SC(=O)NC3=O)cccc2-c2ccccc2)C1 (10 µM) 0
Brc1ccc(CSc2nc3ccccc3o2)cc1 [BMP signaling agonist sb4] (10 µM) 0
